This is one part of the list. The main result of the screen is listed elsewhere. These columns were measured beside it and carry no call. The list favours compounds with an active or inconclusive main result. Words in brackets tell the shape of the fitted curve; partial curves, single points and poor fits give uncertain potencies.
Experiment: qHTS Assay for Modulators of Lamin A Splicing
Conditions: HeLa LMNA splicing GFP/RFP minigene ratio, 48 h
Method in brief: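 S3 HeLa stable clones carrying a lamin A-EGFP splicing minigene plus DsRed2 were seeded at 600 cells/well in Opti-MEM with 2% FBS, pin-dosed and incubated 48 h at 37°C. Acumen cytometry (488 nm) gave the GFP/RFP total-intensity ratio.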

[1] = measured here: RFP viability control channel
[2] = measured here: GFP splicing reporter channel

SMILES	AC50 [1]	AC50 [2]
CCOC(=O)/C(C#N)=C1/C=C(C)NC(c2ccccc2O)=N1	2 µM [rising, full curve]	
Cc1ccc(C(=O)N(c2ccccc2)C2CC(C)N(C(=O)c3ccco3)c3ccccc32)cc1 (configuration not stated)	7.94 µM [rising, partial curve]	
O=C(N/C(=C/C=C/c1ccccc1)C(=O)N1CCOCC1)c1ccccc1Br	0.0891 µM [falling, full curve]	
Cc1ccc(NC(=S)N(CCN(C)C)C(C)c2cccnc2)cc1 (configuration not stated)	20 µM [rising, partial curve, poor fit]	15.8 µM [rising, partial curve]
COc1ccccc1N1CCN(c2nc3ccccn3c(=O)c2C=O)CC1	35.5 µM [rising, single point]	
N#Cc1c(N)c(C#N)c(-c2ccc(O)cc2)c2c1CCCC2	17.8 µM [rising, partial curve]	
O=[N+]([O-])c1cc(-c2cnc3ccccc3n2)ccc1Oc1ccc(Cl)cc1	14.1 µM [rising, partial curve, poor fit]	
COc1ccc(C2CC(C(F)(F)F)n3nc(C(N)=O)c(Cl)c3N2)cc1OC (configuration not stated)	11.2 µM [rising, partial curve]	
O=C(CN1CCCCC1)Nc1cccc2c1OCO2	6.31 µM [falling, single point]	5.62 µM [falling, single point]
Cc1cc(C)nc(N(C#N)Cc2cccc3ccccc23)n1	15.8 µM [rising, single point]	
CC1CN(S(=O)(=O)c2cccc(C(=O)Nc3ccc4c(c3)CCC4)c2)CC(C)O1 (configuration not stated)	22.4 µM [rising, partial curve]	0.00891 µM [rising, full curve, poor fit]
CCC/C=C(\CCC)C(NS(=O)(=O)c1ccc(C(F)(F)F)cc1)c1ccccc1 (configuration not stated)	28.2 µM [rising, partial curve]	
O=C(Cn1ccc2ccccc2c1=O)NCCC(=O)Nc1ccc2c(c1)OCCO2	0.708 µM [falling, single point]	
Fc1ccc(N=c2ssnc2Cl)c(F)c1	0.00501 µM [falling, full curve, poor fit]	
COCCN=c1scc(-c2ccccc2)n1/N=C/c1c[nH]c2ccccc12	17.8 µM [rising, single point]	
C=CCN1C(=O)CSc2ccc(C(=O)NCc3cccs3)cc21	0.0891 µM [falling, full curve]	
C=CCn1c(=N)c(C(=O)NCCCOC)cc2c(=O)n3ccccc3nc21		15.8 µM [rising, single point]
O=c1cnc2cncnc2n1Cc1ccccc1	3.55 µM [falling, full curve]	3.16 µM [falling, full curve]
Cc1cccc(C(=O)Nc2sc(C)c(-c3ccccc3)c2C#N)c1	17.8 µM [rising, partial curve]	11.2 µM [rising, partial curve]

SMILES	AC50 [1]	AC50 [2]
CCCc1cc(=O)[nH]c(SCC(=O)Nc2nc3ccc(OCC)cc3s2)n1	22.4 µM [falling, single point]	
Cc1ccccc1OCCCSc1nc2ccccc2[nH]1	35.5 µM [rising, partial curve]	35.5 µM [rising, single point]
COc1cccc(C2(CSc3nnc(-c4cc(OC)c(OC)c(OC)c4)o3)OCCO2)c1	17.8 µM [rising, single point]	
CC(=O)C(Sc1nc(NC(C)(C)C)nc(N(C)C)n1)C(C)=O	14.1 µM [rising, partial curve, poor fit]	1.78 µM [rising, full curve, poor fit]
CC(C)c1ccc(NC(=S)NCCc2c[nH]c3ccccc23)cc1	35.5 µM [rising, partial curve]	14.1 µM [rising, single point]
CCOc1ccc(C(=O)Nc2ccc3nc(SCC(=O)N(C)c4ccccc4)sc3c2)cc1	0.0794 µM [falling, full curve, poor fit]	4.47 µM [falling, full curve]
CCOC(=O)c1cc(-c2ccc(OC)cc2)n(CCC(=O)Nc2ccc(OC)cc2OC)c1C	0.00501 µM [falling, full curve]	
O=C(CSc1nnc(CSc2nc3ccccc3s2)o1)NC1CCCCC1	35.5 µM [rising, single point]	35.5 µM [rising, single point]
CC(C)c1ccccc1OCC(=O)NCC(c1cccs1)N1CCOCC1 (configuration not stated)	17.8 µM [rising, single point]	6.31 µM [rising, single point]
CN(C)S(=O)(=O)c1ccc(C(=O)NCCSc2ccc(Br)cc2)cc1	31.6 µM [rising, single point]	
Cc1[nH]c2ccccc2c1C(=O)COC(=O)Cn1c(C)nc2ccccc21		12.6 µM [rising, partial curve]
Nc1c(C(=O)Nc2ccccc2)sc2nc(-c3ccco3)ccc12	12.6 µM [rising, partial curve, poor fit]	
Fc1ccc(NC(=S)Nc2ccccc2OC(F)F)cc1Cl	20 µM [rising, partial curve]	
CCc1cccc(OCC(=O)Nc2ccc(S(=O)(=O)Nc3ccccn3)cc2)c1	31.6 µM [falling, partial curve, poor fit]	
O=C1CN(C(=O)CSc2nnc(C3CC3)n2-c2ccccc2)c2ccccc2N1		0.316 µM [rising, full curve]
Cc1cc(/C=N/NC(=O)CC2(C)OCCO2)c(C)n1-c1ccc(Cl)c(Cl)c1	35.5 µM [rising, single point]	
Fc1ccc(C2=CC(c3ccc(Br)o3)n3ncnc3N2)cc1 (configuration not stated)	0.01 µM [rising, full curve, poor fit]	0.794 µM [rising, full curve, poor fit]
Clc1ncnc2scc(-c3ccc(Br)cc3)c12	35.5 µM [rising, single point]	
COc1ccc2c(CC(=O)Nc3ccc(OC)c(NS(=O)(=O)c4ccc(F)cc4)c3)coc2c1	10 µM [rising, partial curve, poor fit]	

SMILES	AC50 [1]	AC50 [2]
COc1ccc(N2CCN(Cc3cc4c(cc3O)CCC4)CC2)cc1	35.5 µM [rising, single point]	
CN(C)N1C(N)=C(C#N)C(c2cccs2)C2=C1CC(C)(C)CC2=O (configuration not stated)	4.47 µM [rising, single point]	
Cc1ccsc1C(C(=O)NC1CCCCC1)N(C(=O)Cc1cccs1)C1CC1 (configuration not stated)	2 µM [rising, full curve, poor fit]	
CC(=O)O/N=C1\C(=O)N(Cc2ccc(C)cc2)c2ccccc21	0.501 µM [falling, full curve]	0.794 µM [falling, full curve]
Oc1ccc(C(=S)N2CCCCC2)cc1Cl	25.1 µM [rising, partial curve]	22.4 µM [rising, single point]
CC(C)C(c1nnnn1C1CCCCC1)N1CCc2ccccc21 (configuration not stated)	12.6 µM [rising, single point]	
CCOC(=O)c1ccc(NC(=O)c2c(NCc3cc(OC)ccc3OC)sc3c2CCC3)cc1		0.0398 µM [rising, full curve, poor fit]
O=C(c1ccc2c(=O)n(Cc3ccco3)c(=S)[nH]c2c1)N1CCN(Cc2ccccc2)CC1	6.31 µM [falling, partial curve, poor fit]	6.31 µM [falling, partial curve, poor fit]
CC(C)OCCCNC(=O)C(NC(=O)c1ccc(Cl)cc1)C(C)C (configuration not stated)	0.00708 µM [rising, full curve, poor fit]	1.41 µM [rising, partial curve]
CCSc1nnc(NC(=O)CSc2c(Cl)cccc2Cl)s1	20 µM [rising, single point]	
C/C(=N/OC(=O)CC(C)C)c1cc(-c2ccc(Cl)cc2)no1	15.8 µM [rising, partial curve, poor fit]	0.251 µM [rising, full curve]
Cc1ccccc1OCC(=O)N/N=C/c1ccc2c(c1)OCCO2	22.4 µM [rising, single point]	
O=C(Nc1ccccc1)Nc1cc(OCC(F)(F)F)cc(OCC(F)(F)F)c1	22.4 µM [rising, single point]	17.8 µM [rising, partial curve, poor fit]
O=C1N(CC(=O)N2CCc3ccccc32)CCN1Cc1ccc(Cl)cc1	31.6 µM [rising, single point]	
O=C(NCc1ccccc1)c1cc(=O)nc2sc(-c3ccccc3)nn12	0.794 µM [falling, single point]	
Cc1sc2nc(-c3cccs3)nc(N3CCCN(C)CC3)c2c1C	15.8 µM [rising, single point]	25.1 µM [rising, single point]
CCCC(=O)Nc1cc(C(=O)O)ccc1S(=O)(=O)c1ccc(Cl)cc1	0.0112 µM [falling, partial curve, poor fit]	
O=C(COc1ccc(S(=O)(=O)NC2CCCCC2)cc1Cl)Nc1ccc2c(c1)OCO2	15.8 µM [rising, single point]	15.8 µM [rising, single point]
O=C(N/N=C/c1ccc(O)cc1O)c1ccc(CN2C(=O)c3cccc4cccc2c34)cc1	35.5 µM [rising, single point]	

Part of the list above, bar-delimited:
SMILES | AC50 [1] | AC50 [2]
CCOC(=O)c1ccc(NC(=O)c2c(NCc3cc(OC)ccc3OC)sc3c2CCC3)cc1 |  | 0.0398 µM [rising, full curve, poor fit]
O=C(c1ccc2c(=O)n(Cc3ccco3)c(=S)[nH]c2c1)N1CCN(Cc2ccccc2)CC1 | 6.31 µM [falling, partial curve, poor fit] | 6.31 µM [falling, partial curve, poor fit]
CC(C)OCCCNC(=O)C(NC(=O)c1ccc(Cl)cc1)C(C)C (configuration not stated) | 0.00708 µM [rising, full curve, poor fit] | 1.41 µM [rising, partial curve]
CCSc1nnc(NC(=O)CSc2c(Cl)cccc2Cl)s1 | 20 µM [rising, single point] | 

Reference: PubChem BioAssay AID1487 (National Center for Advancing Translational Sciences (NCATS), 2009)
